Measured data: PubChem BioAssay AID1224828 (NIAID, 2016)

Test: 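Regulators linking TLR4 signalling to p65 nuclear translocation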 (primary screen)
Cell system: mouse RAW264.7 G9 macrophage reporter cells (GFP-p65, Tnf promoter-mCherry)
Reagent: siRNA pool against mouse genes, 100 nM
Time to read-out: 2 days siRNA transfection, then 40 min LPS before fixation
Challenge: LPS (Salmonella minnesota R595) at 10 ng/ml
Detection: 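Microscopy ratio of nuclear to perinuclear-ring GFP-p65 signal, scaled to the plate median; gene score is the average of two replicate robust z-scores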
Scale: p65 translocation robust z-score: higher = more nuclear NF-kappaB p65 after LPS than the plate median; nuclear/cytoplasmic p65 ratio: higher = more nuclear NF-kappaB p65
Rule for the call: 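Active if robust z is above 3.3 (negative regulators) or below -1.56, the Tlr4 control median (positive regulators); activity score 50 or more; control wells not called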
Calls: active = hit (p65 shift raised or lowered); inactive = no clear change
Here is an unselected part of about 17,000 reagents. 762 of all reagents (4.5%) were called active. 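Active calls include both raised and lowered p65 entry, mostly lowered; wells with fewer than 50 cells lack a z-score.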 Raw values are not corrected between plates. Entries without a mark were called inactive.

target gene | p65 translocation robust z-score | nuclear/cytoplasmic p65 ratio, rep 1 | nuclear/cytoplasmic p65 ratio, rep 2 | low cell count flag
Atxn1 (ataxin 1) | 1.54 | 1.69 | 1.78 | enough cells to score
Ppat (phosphoribosyl pyrophosphate amidotransferase) | 0.42 | 1.61 | 1.41 | enough cells to score
Cavin3 (caveolae associated 3) | -1.42 | 1.3 | 1.15 | enough cells to score
Ripply3 (ripply transcriptional repressor 3) | -0.55 | 1.4 | 1.28 | enough cells to score
Map2k6 (mitogen-activated protein kinase kinase 6) | 0.51 | 1.77 | 1.44 | enough cells to score
Dusp4 (dual specificity phosphatase 4) | -0.66 | 1.57 | 1.31 | enough cells to score
Sftpc (surfactant associated protein C) | 0.04 | 1.52 | 1.6 | enough cells to score
Trex1 (three prime repair exonuclease 1) | -0.6 | 1.3 | 1.12 | enough cells to score
Casc3 (exon junction complex subunit) | -0.69 | 1.42 | 1.75 | enough cells to score
Pde6a (phosphodiesterase 6A, cGMP-specific, rod, alpha) | -0.31 | 1.43 | 1.35 | enough cells to score
Atp6v1b1 (ATPase, H+ transporting, lysosomal V1 subunit B1) | 0.64 | 1.82 | 1.61 | enough cells to score
Zfp97 (zinc finger protein 97) | -0.08 | 1.43 | 1.22 | enough cells to score
Rab11a (RAB11A, member RAS oncogene family) | 1.11 | 1.7 | 1.64 | enough cells to score
Trim37 (tripartite motif-containing 37) | 0.44 | 1.55 | 1.59 | enough cells to score
Papss1 (3'-phosphoadenosine 5'-phosphosulfate synthase 1) | -1.33 | 1.61 | 1.21 | enough cells to score
Or2ad1 (olfactory receptor family 2 subfamily AD member 1) | – | 1.32 | 1.12 | fewer than 50 cells per well; well left out of scoring
Trim30a (tripartite motif-containing 30A) | – | 1.4 | 1.05 | fewer than 50 cells per well; well left out of scoring
Or2y8 (olfactory receptor family 2 subfamily Y member 8) | 1.45 | 1.8 | 1.63 | enough cells to score
Coro1c (coronin, actin binding protein 1C) | 0.14 | 1.42 | 1.46 | enough cells to score
A330041J22Rik (RIKEN cDNA A330041J22 gene) | -0.91 | 1.36 | 1.4 | enough cells to score
Itga3 (integrin alpha 3) | -0.26 | 1.39 | 1.39 | enough cells to score
Zpbp2 (zona pellucida binding protein 2) | -0.42 | 1.34 | 1.37 | enough cells to score
Or1e1c (olfactory receptor family 1 subfamily E member 1C) | 1.23 | 1.69 | 1.65 | enough cells to score
Zfp871 (zinc finger protein 871) | -0.1 | 1.44 | 1.5 | enough cells to score

4 entries from above, reformatted:
Sftpc (surfactant associated protein C) → p65 translocation robust z-score = 0.04; nuclear/cytoplasmic p65 ratio, rep 1 = 1.52; nuclear/cytoplasmic p65 ratio, rep 2 = 1.6; low cell count flag = enough cells to score
Trex1 (three prime repair exonuclease 1) → p65 translocation robust z-score = -0.6; nuclear/cytoplasmic p65 ratio, rep 1 = 1.3; nuclear/cytoplasmic p65 ratio, rep 2 = 1.12; low cell count flag = enough cells to score
Casc3 (exon junction complex subunit) → p65 translocation robust z-score = -0.69; nuclear/cytoplasmic p65 ratio, rep 1 = 1.42; nuclear/cytoplasmic p65 ratio, rep 2 = 1.75; low cell count flag = enough cells to score
Pde6a (phosphodiesterase 6A, cGMP-specific, rod, alpha) → p65 translocation robust z-score = -0.31; nuclear/cytoplasmic p65 ratio, rep 1 = 1.43; nuclear/cytoplasmic p65 ratio, rep 2 = 1.35; low cell count flag = enough cells to score
